Our source for the binding values is PMC2861688.

Amino acid sequences for entries named in this document (tags omitted).
UniProt Q9Y297: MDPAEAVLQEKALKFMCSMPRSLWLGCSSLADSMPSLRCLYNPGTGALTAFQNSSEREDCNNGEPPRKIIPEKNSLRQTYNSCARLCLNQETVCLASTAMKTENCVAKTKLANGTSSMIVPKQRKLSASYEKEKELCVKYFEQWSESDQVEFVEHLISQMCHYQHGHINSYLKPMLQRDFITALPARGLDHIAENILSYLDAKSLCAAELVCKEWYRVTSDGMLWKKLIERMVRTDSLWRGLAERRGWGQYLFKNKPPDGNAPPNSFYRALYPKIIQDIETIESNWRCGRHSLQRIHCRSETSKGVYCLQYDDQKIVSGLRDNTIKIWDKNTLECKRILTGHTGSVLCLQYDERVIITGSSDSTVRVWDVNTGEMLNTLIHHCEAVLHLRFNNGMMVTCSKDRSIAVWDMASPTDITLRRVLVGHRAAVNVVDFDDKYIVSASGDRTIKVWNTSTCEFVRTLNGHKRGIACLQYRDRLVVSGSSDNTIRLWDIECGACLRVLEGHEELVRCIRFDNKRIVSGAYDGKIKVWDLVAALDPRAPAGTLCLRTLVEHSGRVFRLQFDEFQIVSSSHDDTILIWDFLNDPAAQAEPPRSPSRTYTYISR

No constants are given. Whether binding was seen depends on the method and setting. Binding seen in cells or lysates may run through a third protein. Some entries that bind do so weakly or less than the wild type.

The test addresses FLAG-tagged human β-TrCP1 (human) (UniProt Q9Y297). In words: co-IP.

“wild-type HIV-1 Vpu (codon-optimized, NL4-3 variant) (from UniProt P05923 1-81)”: the binding result was “binds”.
